Whole data set: some 33,000 sequences, median “E-score (-0.5 to 0.5)” near -0.015, cut for the highest 2% near 0.3. The list shows a part of the results.
These sequences were tested against T1, Abf1 (UniProt P14164) (assay: PBM E-score (8-mer binding enrichment) (E-score (-0.5 to 0.5)); higher = stronger / more preferred TF binding). Details: protein concentration: 200 nM; construct: GST-full length.
T1 sequence: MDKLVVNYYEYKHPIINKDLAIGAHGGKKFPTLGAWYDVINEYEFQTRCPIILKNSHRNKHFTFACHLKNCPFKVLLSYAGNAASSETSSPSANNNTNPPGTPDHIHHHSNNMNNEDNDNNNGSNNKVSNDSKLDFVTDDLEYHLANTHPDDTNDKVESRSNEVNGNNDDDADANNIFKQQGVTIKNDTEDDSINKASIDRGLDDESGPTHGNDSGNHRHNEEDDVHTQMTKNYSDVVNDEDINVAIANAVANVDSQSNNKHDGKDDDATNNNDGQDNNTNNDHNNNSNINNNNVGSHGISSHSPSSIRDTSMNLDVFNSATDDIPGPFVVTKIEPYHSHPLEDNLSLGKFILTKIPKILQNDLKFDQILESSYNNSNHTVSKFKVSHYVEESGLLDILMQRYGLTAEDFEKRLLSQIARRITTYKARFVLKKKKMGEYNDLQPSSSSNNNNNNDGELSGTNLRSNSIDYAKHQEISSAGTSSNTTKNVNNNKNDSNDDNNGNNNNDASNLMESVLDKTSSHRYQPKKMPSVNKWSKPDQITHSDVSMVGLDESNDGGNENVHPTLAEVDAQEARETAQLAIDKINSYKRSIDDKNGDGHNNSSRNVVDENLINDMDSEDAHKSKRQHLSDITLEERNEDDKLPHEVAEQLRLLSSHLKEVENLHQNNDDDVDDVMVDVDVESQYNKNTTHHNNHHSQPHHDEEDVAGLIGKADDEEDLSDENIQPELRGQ
In short: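 Using PURExpress in vitro transcription/translation, GST-tagged yeast transcription factors were made in full-length or DNA-binding-domain form. These were applied at about 100-200 nM to double-stranded universal all-10-mer Agilent arrays, and bound protein was detected with fluorescent anti-GST. Scans were normalised with masliner before the Universal PBM Analysis Suite assigned E-scores to ungapped eight-base words pooled with their reverse complements.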

| Sequence | PBM E-score |
| --- | --- |
| CACACTAG | 0.00749 |
| TGACAGCA | 0.183 |
| ATGGAGCA | -0.0812 |
| GCCCTACC | -0.149 |
| CCGCCGTC | 0.334 |
| GCCTACCC | -0.25 |
| ATCGGAAA | 0.0872 |
| GTTCAAGA | 0.108 |
| GCGGCATA | 0.106 |
| AACTCCTC | -0.145 |
| AGGACATC | 0.113 |
| CAGGCGAG | -0.101 |
| TACTTACA | 0.0659 |
| TAATGAAA | 0.12 |
| ATGGTGGG | -0.331 |
| CGCGCAGA | 0.103 |
| TCGTGAAA | 0.205 |
| TAAATACA | 0.104 |
| GTGACAAA | 0.412 |
| GGACCCGA | -0.246 |
| AACCTTAG | -0.103 |
| AACTCTCG | -0.077 |
| GGACTTTA | -0.0103 |
| TGTGCTAA | 0.0655 |
| AAATAATA | 0.294 |

| Sequence | PBM E-score |
| --- | --- |
| AACGTGCT | -0.131 |
| GCACCCGA | -0.146 |
| AGACTTAT | -0.0813 |
| CAGTTATG | -0.103 |
| AGGCGTCG | 0.036 |
| CCCCGCCA | -0.0278 |
| AGTATGCG | 0.00272 |
| AGCAGGGG | -0.223 |
| ATGGTGCC | -0.164 |
| CGGCAGAC | -0.0792 |
| ACCAACGG | -0.126 |
| AGCGGTTG | 0.0211 |
| CTGTGCTC | -0.0915 |
| GAACTCAA | -0.256 |
| GCACTAAC | -0.083 |
| GAAAGGGA | -0.0394 |
| AGCGGCTG | -0.107 |
| CACAGTCC | -0.0715 |
| AATTCAGC | -0.0342 |
| ATCCTGGC | -0.0263 |
| AATTTTGT | 0.137 |
| AGCACGAC | 0.0471 |
| TGACATAA | 0.351 |
| AAGGTAAA | 0.057 |
| CGCGTCGC | -0.0158 |

| Sequence | PBM E-score |
| --- | --- |
| ACCATTAT | 0.14 |
| AACAATCT | -0.074 |
| AGAAGTGG | -0.122 |
| TATTAACA | 0.237 |
| AATGCGAG | 0.0328 |
| AGTCGGTG | -0.25 |
| GCACCTAA | 0.0243 |
| CACGATGG | 0.0243 |
| GGACTAGA | -0.175 |
| ACGCGAAT | -0.0212 |
| TAAACGAA | 0.259 |
| AGATGACC | 0.132 |
| ATGAAGGC | -0.22 |
| CTTAACCA | 0.0442 |
| ACATGTAT | 0.00856 |
| CGCCCTCA | -0.224 |
| CGCAAGCA | 0.173 |
| ACCGCAGG | -0.182 |
| AACATAGA | -0.124 |
| CATGTGAC | -0.106 |
| AACTTCTT | 0.0816 |
| AGGGCGAT | -0.118 |
| CCATATCC | -0.0911 |
| CGTGCGAA | 0.223 |
| GCCTTCGC | -0.273 |

| Sequence | PBM E-score |
| --- | --- |
| CAAGGCAA | -0.1 |
| GGTACGTA | 0.0572 |
| ACCCAAAA | -0.0143 |
| AGCAGACT | -0.0452 |
| ACCCGGCG | -0.111 |
| TATATACA | 0.198 |
| ACATACGT | 0.033 |
| CACACCCC | -0.322 |
| CTATTTCC | 0.144 |
| CAGACTGA | -0.181 |
| GAATTTAC | 0.0972 |
| ACAATGAC | 0.107 |
| CGCCTGAA | 0.0846 |
| AGGGGGTG | -0.25 |
| ATAGGTCA | 0.143 |
| GACAAGGC | 0.081 |
| ACGGGAAA | 0.113 |
| ACAGGCTG | -0.175 |
| GCTCGAGC | 0.0628 |
| AATAACTG | 0.0995 |
| GGCCAACC | -0.177 |
| TATACGAA | 0.368 |
| AATTCCAC | 0.0539 |
| AATGATAA | 0.408 |
| ACACTCCT | -0.188 |

| Sequence | PBM E-score |
| --- | --- |
| AGAACTGA | 0.0656 |
| CCTTAGCA | -0.151 |
| GCGATACC | -0.0637 |
| ATCGACGC | 0.0916 |
| TCTGGCCA | -0.162 |
| ATGGGGCG | -0.0303 |
| ATTTAGTA | 0.241 |
| GGATTAAA | -0.136 |
| GCGGTTGA | 0.0217 |
| GGCCAGAC | -0.132 |
| ACTGGCAA | -0.0435 |
| ACCGTAAA | 0.14 |
| AAATGTGG | 0.128 |
| GCGCAAAA | 0.0585 |
| AAACGTAT | 0.19 |
| GAGCGCGC | -0.0752 |
| GGACCCCC | -0.249 |
| CACGTTGC | 0.115 |
| AGGGAGTA | -0.187 |
| AAGTTCAT | -0.223 |
| ACTTGCAC | -0.011 |
| AGACCACC | -0.221 |
| AGGCGGCC | -0.186 |
| AGGTCGAC | -0.0264 |
| ATGTATGG | -0.135 |

Individual results from the list.
PBM E-score with GCGCAAAA reads 0.0585
PBM E-score with CCTTAGCA reads -0.151
PBM E-score with AAACGTAT reads 0.19
PBM E-score with AGAACTGA reads 0.0656
PBM E-score with AGACCACC reads -0.221
PBM E-score with ACCGTAAA reads 0.14
PBM E-score with AGGCGGCC reads -0.186

Further entries:

| Sequence | PBM E-score |
| --- | --- |
| CCCCTGAA | -0.126 |
| AGACCCCC | -0.314 |
| ATCTATTA | 0.0474 |
| ACGCACTA | 0.0452 |
| AGCGCGGA | -0.166 |
| CTTTGCCC | -0.172 |
| AGCACGAT | 0.264 |
| CCTTCAAG | -0.208 |
| AAGGGTAG | -0.092 |
| GCTAGTTA | 0.0469 |
| CATCCAAG | -0.136 |
| ACGAGCCC | 0.0182 |
| GCAGAATA | 0.0578 |
| CAACTCAC | 0.00633 |
| ATACGGGC | 0.26 |
| CAGTCTGG | -0.31 |
| TGAACAAA | 0.172 |
| AGGATATG | 0.157 |
| ATTCTATG | -0.0171 |
| ATACCGAA | 0.189 |
| CCGCCTTA | -0.136 |
| CCGCACGG | 0.0967 |
| ACAATGCA | 0.105 |
| CAGGTTGG | -0.128 |
| CGAAAGCC | -0.237 |

| Sequence | PBM E-score |
| --- | --- |
| CGTGGTTA | 0.242 |
| ATGTTCAA | 0.113 |
| AGATTCCA | 0.0937 |
| AAGACACG | 0.137 |
| AGTCCGTC | 0.0966 |
| AGTACTAA | 0.1 |
| AAGTTCCT | 0.0113 |
| AGTATCTG | -0.0657 |
| ACTGTTGA | -0.118 |
| ATAGTAGA | 0.0823 |
| ACGATGCA | 0.0908 |
| GAGGTATA | 0.0678 |
| TATATGAA | 0.0754 |
| CTCCGAAG | -0.145 |
| AACGGCAC | 0.166 |
| CAGAAATA | 0.0831 |
| ATCATCGC | 0.301 |
| CCTTTGTC | 0.017 |
| CTACAGAA | -0.0367 |
| GAGCTCGA | 0.0275 |
| ATGCCCTC | -0.00994 |
| TCCGGGAA | 0.0377 |

From the supplement of paper PMC3334620
